# Measurements reported in PubChem BioAssay AID504793 (Drosophila RNAi Screening Center, 2011)
# Screen: 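Genes required for cells to halt at G2/M after double-strand DNA breaks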 (primary screen)
# System: Drosophila S2R+ cells
# Reagents: long dsRNA against Drosophila genes, about 0.25 µg dsRNA per well
# Time to read-out: 4 days of dsRNA, then 4 hours of drug before read-out
# Treatment: doxorubicin 0.5 µM for 4 hours to cause double-strand breaks, in cells also given a low, harmless dose of dsRNA against nbs to sensitise the assay
# Detection: 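Per-well count of mitotic cells stained for phospho-histone H3 after doxorubicin exposure, used as mitotic index; counts are raw and not normalised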
# Scale: mitotic cells: higher = more cells in mitosis, weaker G2 arrest
# Rule for the call: 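a call needs confirmation in secondary tests, with other dsRNAs and a check of mitotic timing without damage, not just a high primary count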
# Calls: active = confirmed in follow-up tests; inactive = not confirmed
# The screen tested about 23,000 reagents; this is an unselected part of those with a known target gene and a result. In the full data, 62 (0.27%) were called active. 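Calls come from follow-up tests whose scores are not deposited, so confirmed genes may have low counts here; counts are not normalised per plate.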 Raw values vary from plate to plate and are shown uncorrected. A plus sign joins genes that one reagent is predicted to hit.
gene knocked down,amplicon,"mitotic cells, replicate 1","mitotic cells, replicate 2",Call
Ucp4A (Uncoupling protein 4A),DRSC19996,4,,inactive
Ucp4A (Uncoupling protein 4A),DRSC27013,10,,inactive
alpha-Man-IIb (alpha-Mannosidase class II b),DRSC16898,9,,inactive
alpha-Man-IIb (alpha-Mannosidase class II b),DRSC24186,4,,inactive
CG8303,DRSC07140,7,,inactive
CG32276,DRSC08027,13,,inactive
emb (embargoed),DRSC03528,4,,inactive
Cds (CDP-diacylglycerol synthase),DRSC10938,5,,inactive
CG9512,DRSC20189,6,,inactive
CG14323,DRSC14802,7,,inactive
Synd (Syndapin),DRSC15116,5,,inactive
CG15922,DRSC15128,5,,inactive
CG1943,DRSC12576,3,,inactive
CG17059,DRSC06654,8,,inactive
Chd3,DRSC11114,12,,inactive
Chd3,DRSC23701,5,,inactive
RpL19 (Ribosomal protein L19),DRSC04649,5,,inactive
RpL19 (Ribosomal protein L19),DRSC28391,3,,inactive
CG12535,DRSC17838,10,,inactive
alpha-Spec (alpha Spectrin),DRSC08704,8,,inactive
CG34175,DRSC00424,2,,inactive
spd-2 (spindle defective 2),DRSC09682,7,,inactive
spd-2 (spindle defective 2),DRSC26762,9,,inactive
CCT3 (Chaperonin containing TCP1 subunit 3),DRSC16602,147,,inactive
CG32512,DRSC20519,12,,inactive
CG32512,DRSC20551,4,,inactive
CG32512,DRSC21401,13,,inactive
Mccc1 (Methylcrotonoyl-CoA carboxylase 1),DRSC15417,9,,inactive
Mccc1 (Methylcrotonoyl-CoA carboxylase 1),DRSC27491,6,,inactive
Cox17 (Cytochrome c oxidase copper chaperone COX17),DRSC20145,14,,inactive
CG1246,DRSC08275,5,,inactive
Rexo5 (RNA exonuclease 5),DRSC10981,5,,inactive
cana + CG33695,DRSC23517,7,,inactive
CG9106,DRSC20154,5,,inactive
CG9106,DRSC24212,7,,inactive
PI31 (Proteasome inhibitor 31 kDa),DRSC07306,9,,inactive
CG14205,DRSC19560,26,,inactive
CG14205,DRSC28253,3,,inactive
CG33090,DRSC01908,8,,inactive
CG33090,DRSC27923,9,,inactive
825-Oak + CG32214 + CG32213,DRSC27977,8,,inactive
Sld5,DRSC14892,7,,inactive
Taldo (Transaldolase),DRSC04320,7,,inactive
Taldo (Transaldolase),DRSC27470,3,,inactive
Acox57D-d (acyl-Coenzyme A oxidase at 57D distal),DRSC04561,10,,inactive
Acox57D-d (acyl-Coenzyme A oxidase at 57D distal),DRSC30108,5,,inactive
CG11816,DRSC19428,11,,inactive
CG11816,DRSC23612,7,,inactive
CG9624,DRSC16523,5,,inactive
CG15237,DRSC04971,4,,inactive
CG10307,DRSC04057,7,,inactive
CG10307,DRSC26316,8,,inactive
neo (neyo),DRSC16316,5,,inactive
neo (neyo),DRSC24164,7,,inactive
Tsp42Ea (Tetraspanin 42Ea),DRSC04982,5,,inactive
Tsp42Ea (Tetraspanin 42Ea),DRSC06792,2,,inactive
CG7239,DRSC23113,10,,inactive
CG33337,DRSC13632,6,14,inactive
CG33337,DRSC27000,4,,inactive
amrt (amaretto),DRSC19378,6,,inactive
amrt (amaretto),DRSC26943,4,,inactive
Flo1 (Flotillin 1),DRSC07427,6,,inactive
Flo1 (Flotillin 1),DRSC28122,6,,inactive
CG16984,DRSC08500,5,,inactive
CG16984,DRSC28605,6,,inactive
"mAChR-A (muscarinic Acetylcholine Receptor, A-type)",DRSC04702,10,,inactive
"mAChR-A (muscarinic Acetylcholine Receptor, A-type)",DRSC28262,7,,inactive
CG7369,DRSC23501,6,,inactive
CG17612,DRSC00505,8,,inactive
CG17612,DRSC28366,5,,inactive
CG7879,DRSC08600,5,,inactive
CG7879,DRSC25308,12,,inactive
CG9578,DRSC20694,6,,inactive
CG9578,DRSC29540,2,,inactive
CG10064,DRSC09689,5,,inactive
SMSr (Sphingomyelin synthase related),DRSC10998,7,,inactive
SMSr (Sphingomyelin synthase related),DRSC10999,4,,inactive
sws (swiss cheese),DRSC18843,8,9,inactive
CG6726,DRSC16101,6,,inactive
CG6726,DRSC28130,3,,inactive
mrva (minerva),DRSC11009,13,,inactive
mrva (minerva),DRSC21842,12,,inactive
mrva (minerva),DRSC25508,9,,inactive
CG14257,DRSC14752,11,,inactive
CG14257,DRSC27835,4,,inactive
CG2839,DRSC00544,2,,inactive
CG2839,DRSC28090,7,,inactive
CG6790,DRSC16117,2,,inactive
tmod (tropomodulin),DRSC14314,17,,inactive
tmod (tropomodulin),DRSC15076,7,,inactive
tmod (tropomodulin),DRSC17062,3,,inactive
tmod (tropomodulin),DRSC25448,8,,inactive
mahe (maheshvara),DRSC17755,12,,inactive
mahe (maheshvara),DRSC24030,11,,inactive
ari-1 (ariadne 1),DRSC20308,12,,inactive
ari-1 (ariadne 1),DRSC21603,9,,inactive
ari-1 (ariadne 1),DRSC27556,4,,inactive
tos (tosca),DRSC03624,5,,inactive
Vha100-3 (Vacuolar H[+] ATPase 100kD subunit 3),DRSC05760,3,,inactive
CG8388,DRSC07157,12,,inactive
CG14958,DRSC08417,4,,inactive
CG2701,DRSC18590,7,,inactive
Cchl (Cytochrome c heme lyase),DRSC15949,,,inactive
VGlut (Vesicular glutamate transporter),DRSC00733,7,,inactive
VGlut (Vesicular glutamate transporter),DRSC21821,9,,inactive
CG14356,DRSC14819,5,,inactive
CycC (Cyclin C),DRSC16619,26,,active
del (deadlock),DRSC03170,16,,inactive
wrd (well-rounded),DRSC16344,5,,inactive
wrd (well-rounded),DRSC23189,11,,inactive
wrd (well-rounded),DRSC25929,6,,inactive
CG10588,DRSC11628,6,,inactive
CG14712,DRSC14935,9,,inactive
CG32240,DRSC08093,15,,inactive
cN-IIIB (cytosolic 5'-nucleotidase IIIB),DRSC04359,6,,inactive
Etf-QO (Electron transfer flavoprotein-ubiquinone oxidoreductase),DRSC06111,4,,inactive
CG10651,DRSC02086,10,,inactive
BoYb,DRSC11637,4,,inactive
kraken,DRSC00824,2,,inactive
kraken,DRSC28163,3,,inactive
CG3216,DRSC04347,9,,inactive
CG3216,DRSC24945,8,,inactive
CG13005,DRSC19524,8,,inactive
dock (dreadlocks),DRSC00812,7,,inactive
dock (dreadlocks),DRSC27610,4,,inactive
CG3191,DRSC18530,10,,inactive
CG3191,DRSC29390,3,,inactive
Pdss2 (Decaprenyl diphosphate synthase subunit 2),DRSC11625,3,,inactive
BuGZ (Bub3 interacting GLEBS and Zinc finger domain protein),DRSC02642,4,,inactive
BuGZ (Bub3 interacting GLEBS and Zinc finger domain protein),DRSC02643,5,,inactive
BuGZ (Bub3 interacting GLEBS and Zinc finger domain protein),DRSC25285,2,,inactive
Ubc4 (Ubiquitin conjugating enzyme 4),DRSC11312,4,,inactive
cact (cactus),DRSC03501,9,,inactive
cact (cactus),DRSC28422,4,,inactive
CG30371,DRSC06835,9,,inactive
sha (shavenoid),DRSC06331,4,,inactive
hpRNA:CR32207 (hairpin RNA:CR32207),DRSC09616,4,,inactive
Cyp312a1 (Cytochrome P450 312a1),DRSC11128,3,,inactive
Cyp312a1 (Cytochrome P450 312a1),DRSC24814,3,,inactive
CG31088,DRSC13123,11,,inactive
CG31088,DRSC25600,7,,inactive

Ordered by “mitotic cells, replicate 1” (low to high): 16 of the entries above
gene knocked down,amplicon,"mitotic cells, replicate 1","mitotic cells, replicate 2",Call
CG34175,DRSC00424,2,,inactive
CG1943,DRSC12576,3,,inactive
RpL19 (Ribosomal protein L19),DRSC28391,3,,inactive
Synd (Syndapin),DRSC15116,5,,inactive
CG15922,DRSC15128,5,,inactive
Chd3,DRSC23701,5,,inactive
RpL19 (Ribosomal protein L19),DRSC04649,5,,inactive
CG9512,DRSC20189,6,,inactive
CG14323,DRSC14802,7,,inactive
spd-2 (spindle defective 2),DRSC09682,7,,inactive
CG17059,DRSC06654,8,,inactive
alpha-Spec (alpha Spectrin),DRSC08704,8,,inactive
spd-2 (spindle defective 2),DRSC26762,9,,inactive
CG12535,DRSC17838,10,,inactive
Chd3,DRSC11114,12,,inactive
CCT3 (Chaperonin containing TCP1 subunit 3),DRSC16602,147,,inactive
